Values of other authors in patent publication US10940187B2, “Method of treatment of schizophreniform disorder” (Curemark, LLC, priority 2011, dated 2021).
At least one structure is not confirmed: it was looked up by name or label, or the drawing left a doubt. Some compounds share one wording; it may come from a single statement.

Columns and labels:
schizophrenic patients = details: Schizophrenia
ckr mice = details: dose dependent effects

Structure (SMILES): CN1CCN(C2=Nc3cc(Cl)ccc3Nc3ccccc32)CC1 [clozapine]
- Response to Antipsychotics (schizophrenic patients): Yes
- Response to Antipsychotics (ckr mouse; Ckr Mice): Yes
- lateralized circling behavior and aberrant postural asymmetry (ckr mouse; ckr mouse): alleviate
- spontaneous hyperactivity of ckr mice (ckr mice): dose-dependently suppressed

Structure (SMILES): O=c1[nH]c2ccccc2n1C1CCN(CCCC(c2ccc(F)cc2)c2ccc(F)cc2)CC1 [pimozide]
- spontaneous hyperactivity of ckr mice (ckr mice): dose-dependently suppressed
